Laboratory results: paper doi:10.1101/168518
Results are given in words; binding and its absence hold for the method and conditions named. Binding can be weak; no strength is given. For some of these results: Binding seen in cells or lysates may run through a third protein. For some of these results: Tags and fused reporters may be left off the sequences shown.

Experiments:
FLAG-SEC12 = target: T1, FLAG-SEC12 (UniProt Q9HCU5); test: co-IP
T1 sequence: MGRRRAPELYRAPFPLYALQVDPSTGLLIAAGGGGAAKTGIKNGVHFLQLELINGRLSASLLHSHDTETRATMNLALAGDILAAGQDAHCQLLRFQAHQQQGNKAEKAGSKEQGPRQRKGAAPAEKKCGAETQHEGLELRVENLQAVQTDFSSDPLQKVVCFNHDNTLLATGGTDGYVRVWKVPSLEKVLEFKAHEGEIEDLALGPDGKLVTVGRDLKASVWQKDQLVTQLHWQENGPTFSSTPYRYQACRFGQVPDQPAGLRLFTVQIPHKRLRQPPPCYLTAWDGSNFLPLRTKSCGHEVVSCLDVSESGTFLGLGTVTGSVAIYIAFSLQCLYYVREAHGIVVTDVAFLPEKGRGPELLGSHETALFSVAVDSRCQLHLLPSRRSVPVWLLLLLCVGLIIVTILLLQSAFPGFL

[1] = target: T2, SEC12 (endogenous) (human (endogenous in HeLa)) (UniProt Q9HCU5); test: native gel or EMSA
T2 sequence: T1 sequence

Substance	binding (FLAG-SEC12)	binding [1]
ATG9 (endogenous) (human (endogenous in HEK293T))	no binding	
ATG16 (endogenous) (human (endogenous in HEK293T))	no binding	
CTAGE5 (endogenous) (human (endogenous in HEK293T and HeLa))	binds	binds
